Publication PMC6303327
Results are given in words; binding and its absence hold for the method and conditions named. Some entries that bind do so weakly or less than the wild type.

By UniProt entry, the sequences of proteins in these tests, tags left out. Where a name states a change or a piece, a line headed by the entry shows the natural chain unless it says otherwise.
UniProt P22336: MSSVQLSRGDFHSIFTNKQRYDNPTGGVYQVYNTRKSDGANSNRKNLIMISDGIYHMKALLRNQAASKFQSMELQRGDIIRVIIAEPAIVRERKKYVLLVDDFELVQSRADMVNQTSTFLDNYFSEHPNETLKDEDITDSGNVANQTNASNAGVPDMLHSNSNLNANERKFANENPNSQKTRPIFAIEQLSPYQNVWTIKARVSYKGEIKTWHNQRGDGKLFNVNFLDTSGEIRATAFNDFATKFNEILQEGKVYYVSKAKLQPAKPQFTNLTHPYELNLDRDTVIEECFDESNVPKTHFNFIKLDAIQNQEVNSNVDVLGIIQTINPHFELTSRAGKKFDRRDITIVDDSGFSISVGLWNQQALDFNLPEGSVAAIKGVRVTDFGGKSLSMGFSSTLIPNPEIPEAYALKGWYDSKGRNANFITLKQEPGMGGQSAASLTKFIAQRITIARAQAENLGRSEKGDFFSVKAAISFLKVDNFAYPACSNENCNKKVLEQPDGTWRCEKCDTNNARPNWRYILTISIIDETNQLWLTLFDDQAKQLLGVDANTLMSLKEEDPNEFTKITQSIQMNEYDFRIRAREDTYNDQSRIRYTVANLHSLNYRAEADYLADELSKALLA
UniProt P26754: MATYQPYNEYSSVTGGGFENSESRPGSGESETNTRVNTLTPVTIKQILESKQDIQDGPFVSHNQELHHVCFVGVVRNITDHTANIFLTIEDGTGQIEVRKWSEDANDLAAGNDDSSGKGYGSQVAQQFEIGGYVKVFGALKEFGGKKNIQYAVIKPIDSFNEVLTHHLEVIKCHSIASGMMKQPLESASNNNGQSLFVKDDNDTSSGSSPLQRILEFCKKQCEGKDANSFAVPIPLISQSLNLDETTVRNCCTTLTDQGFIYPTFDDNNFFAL
UniProt P26755: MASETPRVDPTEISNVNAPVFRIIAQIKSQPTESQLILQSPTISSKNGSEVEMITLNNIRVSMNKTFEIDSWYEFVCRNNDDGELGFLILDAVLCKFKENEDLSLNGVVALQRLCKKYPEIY

Key:
[1] = target: Rfa1, full length, as subunit of recombinant ScRPA (S. cerevisiae) (UniProt P22336); assay: SEC-MALS; Apo-RPA on Superdex S200; 20 mM Tris-HCl pH 7.5, 150 mM NaCl, 0.5 mM TCEP, 25 °C; both purified
[2] = target: Rfa1 S178D, full length, as subunit of recombinant RPA^S178D (S. cerevisiae) (UniProt P22336); assay: cryo-EM structure; ScRPA (WT or S178D) on dT100 ssDNA, complexes purified by SEC; 20 mM Tris-HCl, 150 mM NaCl, 1 mM DTT, pH 7.4; Tri-C at 4.7 Å, RPA dimer at 7.5 Å; both purified
[3] = target: Rfa1, full length, as subunit of recombinant ScRPA (S. cerevisiae) (UniProt P22336); assay: as above
[4] = target: Rfa2, full length, as subunit of recombinant ScRPA (S. cerevisiae) (UniProt P26754); assay: as above

Measured: binding

Rfa2, full length, as subunit of recombinant ScRPA (from UniProt P26754 1-273)
binds: [1] | [2] | [3]

Rfa3, full length, as subunit of recombinant ScRPA (from UniProt P26755 1-122)
binds: all assays above
